This is an account of results in publication PMC12702058.

Sequences of proteins named here, by UniProt entry; tags and fusion partners are left off. Residues count along the entry.
UniProt O95817: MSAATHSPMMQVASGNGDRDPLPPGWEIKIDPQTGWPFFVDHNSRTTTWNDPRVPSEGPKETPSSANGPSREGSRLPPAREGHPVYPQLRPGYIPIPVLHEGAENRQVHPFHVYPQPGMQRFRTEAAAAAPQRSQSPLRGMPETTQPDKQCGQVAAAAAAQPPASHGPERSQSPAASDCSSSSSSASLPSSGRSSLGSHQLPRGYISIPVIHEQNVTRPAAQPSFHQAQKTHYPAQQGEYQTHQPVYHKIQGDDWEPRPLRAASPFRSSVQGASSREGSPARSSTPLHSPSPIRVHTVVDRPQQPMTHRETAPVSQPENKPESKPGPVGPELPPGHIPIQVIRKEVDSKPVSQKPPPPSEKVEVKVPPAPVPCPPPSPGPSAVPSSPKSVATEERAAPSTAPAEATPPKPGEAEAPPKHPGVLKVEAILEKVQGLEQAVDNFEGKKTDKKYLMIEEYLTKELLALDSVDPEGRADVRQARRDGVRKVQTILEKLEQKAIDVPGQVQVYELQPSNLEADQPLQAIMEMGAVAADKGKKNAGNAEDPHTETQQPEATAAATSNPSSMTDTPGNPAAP
UniProt Q04721, residues 26-2471: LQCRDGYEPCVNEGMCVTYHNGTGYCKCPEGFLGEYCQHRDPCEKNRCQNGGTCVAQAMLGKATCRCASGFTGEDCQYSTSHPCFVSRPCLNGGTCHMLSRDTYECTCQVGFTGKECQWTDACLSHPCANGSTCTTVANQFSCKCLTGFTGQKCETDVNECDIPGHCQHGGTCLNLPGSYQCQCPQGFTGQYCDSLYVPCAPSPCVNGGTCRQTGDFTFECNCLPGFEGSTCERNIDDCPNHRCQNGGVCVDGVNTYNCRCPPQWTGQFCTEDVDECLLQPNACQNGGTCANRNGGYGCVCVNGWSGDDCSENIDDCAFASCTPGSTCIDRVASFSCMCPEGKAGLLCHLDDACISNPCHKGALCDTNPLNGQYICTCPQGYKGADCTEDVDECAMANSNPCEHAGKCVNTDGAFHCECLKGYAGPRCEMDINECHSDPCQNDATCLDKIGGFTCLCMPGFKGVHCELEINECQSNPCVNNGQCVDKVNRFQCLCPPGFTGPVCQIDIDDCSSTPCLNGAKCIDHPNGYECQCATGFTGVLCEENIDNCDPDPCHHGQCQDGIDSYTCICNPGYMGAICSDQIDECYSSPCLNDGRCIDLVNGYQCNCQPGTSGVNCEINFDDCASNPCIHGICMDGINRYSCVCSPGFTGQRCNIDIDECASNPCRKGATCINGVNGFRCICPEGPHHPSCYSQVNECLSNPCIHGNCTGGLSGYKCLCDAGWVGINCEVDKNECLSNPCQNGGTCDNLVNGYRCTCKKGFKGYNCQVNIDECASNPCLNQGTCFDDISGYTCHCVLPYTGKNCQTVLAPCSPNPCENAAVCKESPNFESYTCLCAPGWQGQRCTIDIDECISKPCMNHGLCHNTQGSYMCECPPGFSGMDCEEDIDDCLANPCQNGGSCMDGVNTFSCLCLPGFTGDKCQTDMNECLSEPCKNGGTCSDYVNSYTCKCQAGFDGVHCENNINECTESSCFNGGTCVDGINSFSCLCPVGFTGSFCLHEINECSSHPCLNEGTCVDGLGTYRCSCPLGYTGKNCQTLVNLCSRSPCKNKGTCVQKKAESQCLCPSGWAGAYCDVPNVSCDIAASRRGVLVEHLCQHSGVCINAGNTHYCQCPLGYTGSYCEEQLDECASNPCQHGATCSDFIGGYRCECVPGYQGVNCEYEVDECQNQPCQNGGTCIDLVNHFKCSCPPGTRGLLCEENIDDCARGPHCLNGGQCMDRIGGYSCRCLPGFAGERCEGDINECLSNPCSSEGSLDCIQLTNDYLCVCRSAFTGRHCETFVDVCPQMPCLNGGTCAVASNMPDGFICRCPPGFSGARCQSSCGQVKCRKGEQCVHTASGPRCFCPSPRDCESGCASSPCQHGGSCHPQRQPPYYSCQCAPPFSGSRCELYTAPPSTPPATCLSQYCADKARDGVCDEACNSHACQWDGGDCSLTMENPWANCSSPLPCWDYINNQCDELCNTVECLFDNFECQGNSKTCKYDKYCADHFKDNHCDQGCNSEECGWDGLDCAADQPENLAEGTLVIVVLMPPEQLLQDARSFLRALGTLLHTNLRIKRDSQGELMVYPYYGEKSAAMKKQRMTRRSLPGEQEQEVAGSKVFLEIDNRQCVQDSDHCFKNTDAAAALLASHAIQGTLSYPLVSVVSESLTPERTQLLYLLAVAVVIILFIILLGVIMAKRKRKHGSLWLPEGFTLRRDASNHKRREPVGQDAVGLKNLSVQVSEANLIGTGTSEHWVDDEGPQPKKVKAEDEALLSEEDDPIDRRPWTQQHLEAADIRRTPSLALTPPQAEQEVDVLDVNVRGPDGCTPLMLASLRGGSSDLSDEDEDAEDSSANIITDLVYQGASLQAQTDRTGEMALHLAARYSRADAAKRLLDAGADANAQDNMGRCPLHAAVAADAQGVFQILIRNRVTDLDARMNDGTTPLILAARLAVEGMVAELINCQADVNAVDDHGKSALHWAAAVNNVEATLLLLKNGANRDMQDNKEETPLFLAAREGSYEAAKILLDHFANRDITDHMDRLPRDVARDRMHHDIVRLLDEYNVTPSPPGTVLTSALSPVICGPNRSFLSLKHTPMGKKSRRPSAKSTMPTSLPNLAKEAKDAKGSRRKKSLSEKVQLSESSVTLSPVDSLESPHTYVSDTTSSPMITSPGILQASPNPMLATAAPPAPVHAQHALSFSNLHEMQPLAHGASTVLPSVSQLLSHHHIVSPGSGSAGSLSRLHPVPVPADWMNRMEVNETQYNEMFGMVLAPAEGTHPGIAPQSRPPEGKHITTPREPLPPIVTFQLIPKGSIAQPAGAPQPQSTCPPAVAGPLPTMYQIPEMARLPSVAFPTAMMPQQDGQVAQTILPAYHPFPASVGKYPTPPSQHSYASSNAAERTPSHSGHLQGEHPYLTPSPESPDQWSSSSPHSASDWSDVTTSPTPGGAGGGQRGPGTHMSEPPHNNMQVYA
UniProt P10586, residues 30-1907: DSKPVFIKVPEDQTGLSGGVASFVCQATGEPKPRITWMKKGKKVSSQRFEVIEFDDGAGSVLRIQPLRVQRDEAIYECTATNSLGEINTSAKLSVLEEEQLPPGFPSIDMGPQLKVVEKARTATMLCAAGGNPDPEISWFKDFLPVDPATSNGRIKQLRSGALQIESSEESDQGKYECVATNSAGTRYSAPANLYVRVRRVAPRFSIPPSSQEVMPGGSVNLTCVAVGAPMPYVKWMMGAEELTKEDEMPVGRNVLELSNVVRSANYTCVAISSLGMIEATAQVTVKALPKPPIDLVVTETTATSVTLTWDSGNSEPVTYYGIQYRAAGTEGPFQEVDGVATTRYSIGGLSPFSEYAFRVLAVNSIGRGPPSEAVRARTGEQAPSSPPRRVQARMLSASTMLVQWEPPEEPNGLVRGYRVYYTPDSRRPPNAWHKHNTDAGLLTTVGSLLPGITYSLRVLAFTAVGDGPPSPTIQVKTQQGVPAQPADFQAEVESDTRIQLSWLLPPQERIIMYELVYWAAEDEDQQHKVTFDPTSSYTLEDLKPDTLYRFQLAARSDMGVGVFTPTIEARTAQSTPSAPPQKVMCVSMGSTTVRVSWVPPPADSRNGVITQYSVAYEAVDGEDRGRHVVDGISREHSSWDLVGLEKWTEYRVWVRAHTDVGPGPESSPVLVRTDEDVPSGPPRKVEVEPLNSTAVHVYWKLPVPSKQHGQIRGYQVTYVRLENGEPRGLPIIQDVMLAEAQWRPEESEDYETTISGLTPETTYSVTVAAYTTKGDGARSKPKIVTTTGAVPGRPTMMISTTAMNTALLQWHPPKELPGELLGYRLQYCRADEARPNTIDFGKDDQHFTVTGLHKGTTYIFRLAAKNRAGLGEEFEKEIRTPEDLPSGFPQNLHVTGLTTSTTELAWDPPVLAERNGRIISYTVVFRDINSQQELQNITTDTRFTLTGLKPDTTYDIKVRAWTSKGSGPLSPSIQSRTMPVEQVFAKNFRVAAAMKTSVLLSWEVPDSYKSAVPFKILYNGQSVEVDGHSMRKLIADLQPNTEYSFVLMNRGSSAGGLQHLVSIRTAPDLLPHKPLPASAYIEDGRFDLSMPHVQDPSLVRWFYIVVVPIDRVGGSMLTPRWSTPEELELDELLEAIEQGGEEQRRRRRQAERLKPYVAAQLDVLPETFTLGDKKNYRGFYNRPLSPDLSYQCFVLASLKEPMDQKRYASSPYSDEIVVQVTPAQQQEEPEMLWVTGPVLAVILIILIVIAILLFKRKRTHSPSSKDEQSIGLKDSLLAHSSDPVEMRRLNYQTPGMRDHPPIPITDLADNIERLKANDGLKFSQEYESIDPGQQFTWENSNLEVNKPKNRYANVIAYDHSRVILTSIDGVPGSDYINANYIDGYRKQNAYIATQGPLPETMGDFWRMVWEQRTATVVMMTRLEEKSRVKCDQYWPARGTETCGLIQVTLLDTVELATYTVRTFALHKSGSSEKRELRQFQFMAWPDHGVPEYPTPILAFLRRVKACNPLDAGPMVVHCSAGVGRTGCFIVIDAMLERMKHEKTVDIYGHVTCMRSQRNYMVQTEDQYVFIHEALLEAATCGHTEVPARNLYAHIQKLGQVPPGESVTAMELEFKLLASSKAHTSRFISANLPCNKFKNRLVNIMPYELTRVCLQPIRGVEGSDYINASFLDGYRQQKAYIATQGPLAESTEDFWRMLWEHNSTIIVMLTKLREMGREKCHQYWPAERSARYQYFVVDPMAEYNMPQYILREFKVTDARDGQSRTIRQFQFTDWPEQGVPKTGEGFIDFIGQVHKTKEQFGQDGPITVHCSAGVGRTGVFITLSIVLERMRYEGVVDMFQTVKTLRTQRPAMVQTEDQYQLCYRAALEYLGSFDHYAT
UniProt P05387: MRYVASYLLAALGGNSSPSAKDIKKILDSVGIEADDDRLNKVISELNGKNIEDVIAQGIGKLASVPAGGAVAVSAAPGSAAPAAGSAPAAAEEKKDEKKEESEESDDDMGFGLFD
UniProt Q01628: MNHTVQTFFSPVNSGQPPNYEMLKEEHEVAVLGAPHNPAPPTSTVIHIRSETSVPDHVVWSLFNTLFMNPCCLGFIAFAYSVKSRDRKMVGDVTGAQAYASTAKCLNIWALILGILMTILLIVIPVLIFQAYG

No constants are given. Whether binding was seen depends on the method and setting. Binding seen in cells or lysates may run through a third protein. Here binding means that the protein was enriched with, or labelled near, the bait; the list need not be complete. Sequences can lack the tags named with a protein.

The target of this assay is T1, FLAG-MARCH8 (Membrane-Associated RING-CH 8) (human) (UniProt Q5T0T0).
T1 sequence: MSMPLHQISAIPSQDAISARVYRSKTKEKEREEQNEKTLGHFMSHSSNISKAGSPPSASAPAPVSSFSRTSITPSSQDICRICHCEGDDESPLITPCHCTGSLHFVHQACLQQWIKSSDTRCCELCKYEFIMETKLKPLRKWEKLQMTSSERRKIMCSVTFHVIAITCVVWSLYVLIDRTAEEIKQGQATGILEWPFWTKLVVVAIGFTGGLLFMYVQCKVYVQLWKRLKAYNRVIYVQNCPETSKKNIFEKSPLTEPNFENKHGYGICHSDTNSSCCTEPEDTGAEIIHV
As to the kind of experiment: affinity purification with mass spectrometry; HeLa cells transfected with FLAG-MARCH8 or empty vector, treated with chloroquine; lysate in IP lysis buffer on anti-FLAG beads, 4 °C, 2 h; LC-MS/MS; proteins of the negative control excluded.

Turning to BAG3 (from UniProt O95817 1-575), the binding result is recorded as “binds”.
As to “NOTCH2 (from UniProt Q04721 26-2471) (receptor)”, the binding result is recorded as “binds”.
Next, “PTPRF (from UniProt P10586 30-1907) (receptor)”: “binds”; RLA2 (from UniProt P05387 1-115): “binds”.
Next, “interferon-induced transmembrane protein 3 (IFITM3), endogenous (from UniProt Q01628 1-133)”: “binds”.

B1: RCN1 (protein, UniProt Q15293 30-331)
chain: KPTVRKERVVRPDSELGERPPEDNQSFQYDHEAFLGKEDSKTFDQLTPDESKERLGKIVDRIDNDGDGFVTTEELKTWIKRVQKRYIFDNVAKVWKDYDRDKDDKISWEEYKQATYGYYLGNPAEFHDSSDHHTFKKMLPRDERRFKAADLNGDLTATREEFTAFLHPEEFEHMKEIVVLETLEDIDKNGDGFVDQDEYIADMFSHEENGPEPDWVLSEREQFNEFRDLNKDGKLDKDEIRHWILPQDYDHAQAEARHLVYESDKNKDEKLTKEEILENWNMFVGSQATNYGEDLTKNHDEL
For the molecule B1, the binding entry is recorded as “binds”.

B2: PGM1 (enzyme, UniProt P36871 1-562)
chain: MVKIVTVKTQAYQDQKPGTSGLRKRVKVFQSSANYAENFIQSIISTVEPAQRQEATLVVGGDGRFYMKEAIQLIARIAAANGIGRLVIGQNGILSTPAVSCIIRKIKAIGGIILTASHNPGGPNGDFGIKFNISNGGPAPEAITDKIFQISKTIEEYAVCPDLKVDLGVLGKQQFDLENKFKPFTVEIVDSVEAYATMLRSIFDFSALKELLSGPNRLKIRIDAMHGVVGPYVKKILCEELGAPANSAVNCVPLEDFGGHHPDPNLTYAADLVETMKSGEHDFGAAFDGDGDRNMILGKHGFFVNPSDSVAVIAANIFSIPYFQQTGVRGFARSMPTSGALDRVASATKIALYETPTGWKFFGNLMDASKLSLCGEESFGTGSDHIREKDGLWAVLAWLSILATRKQSVEDILKDHWQKYGRNFFTRYDYEEVEAEGANKMMKDLEALMFDRSFVGKQFSANDKVYTVEKADNFEYSDPVDGSISRNQGLRLIFTDGSRIVFRLSGTGSAGATIRLYIDSYEKDVAKINQDPQVMLAPLISIALKVSQLQERTGRTAPTVIT
For the molecule B2, the binding result is given as “binds”.

B3: SLC39A14 (protein, UniProt Q15043 31-492)
chain: SSLGAPAISAASFLQDLIHRYGEGDSLTLQQLKALLNHLDVGVGRGNVTQHVQGHRNLSTCFSSGDLFTAHNFSEQSRIGSSELQEFCPTILQQLDSRACTSENQENEENEQTEEGRPSAVEVWGYGLLCVTVISLCSLLGASVVPFMKKTFYKRLLLYFIALAIGTLYSNALFQLIPEAFGFNPLEDYYVSKSAVVFGGFYLFFFTEKILKILLKQKNEHHHGHSHYASESLPSKKDQEEGVMEKLQNGDLDHMIPQHCSSELDGKAPMVDEKVIVGSLSVQDLQASQSACYWLKGVRYSDIGTLAWMITLSDGLHNFIDGLAIGASFTVSVFQGISTSVAILCEEFPHELGDFVILLNAGMSIQQALFFNFLSACCCYLGLAFGILAGSHFSANWIFALAGGMFLYISLADMFPEMNEVCQEDERKGSILIPFIIQNLGLLTGFTIMVVLTMYSGQIQIG
For the molecule B3, the binding entry is “binds”.
